Step yield data for one substance are collected here from US12350344 (dated 2025).

The data set in a line: general procedure: solution-phase peptide synthesis; N-ethoxycarbonyl-2-ethoxy-1,2-dihydroquinoline. To be noted: coupling step.

“N-{[(1R,8S)-Bicyclo[6.1.0]non-4-in-9-ylmethoxy]carbonyl}glycylglycyl-L-valyl-N-{4-[({[(11a′S)-11′-hydroxy-7′-methoxy-8′-[(5-{[(11aS)-7-methoxy-2-(4-methoxyphenyl)-5-oxo-5,10,11,11a-tetrahydro-1H-pyrrolo[2,1-c][1,4]benzodiazepin-8-yl]oxy}pentyl)oxy]-5′-oxo-11′,11a′-dihydro-1′H-spiro[cyclopropane-1,2′-pyrrolo[2,1-c][1,4]benzodiazepine]-10′(5′H)-yl]carbonyl}oxy)methyl]phenyl}-L-alaninamide” yielded a step yield of 60%.
